Results on 19 compounds are retold here after PubChem BioAssay AID330 (DTP/NCI, 2004).

The assay concerns P388 leukemia ip, CD2F1 mice, survival T/C. Nature of the assay: NCI In Vivo Anticancer Drug Screen. Data for tumor model P388 Leukemia (intraperitoneal) in CD2F1 (CDF1) mice. The following applies: T/C endpoint: median survival time, higher T/C = longer survival.
Where [1] appears, read: dose: 60.0 mg/kg/injection, schedule: Q01DX005 (ip), vehicle: Klucel (hydroxypropylcellulose) (HPC).
The mark [2] stands for this setting: dose: 240.0 mg/kg/injection, schedule: Q01DX005 (ip), vehicle: Klucel (hydroxypropylcellulose) (HPC).
[3] abbreviates: dose: 200.0 mg/kg/injection, schedule: Q01DX009 (ip), vehicle: Klucel (hydroxypropylcellulose) (HPC).
The mark [4] stands for this setting: dose: 1.56 mg/kg/injection, schedule: Q01DX009 (ip), vehicle: saline.
The mark [5] stands for this setting: dose: 3.12 mg/kg/injection, schedule: Q01DX009 (ip), vehicle: saline.
Where [6] appears, read: dose: 6.25 mg/kg/injection, schedule: Q01DX009 (ip), vehicle: saline with Tween-80.
Setting [7] is: dose: 12.5 mg/kg/injection, schedule: Q01DX009 (ip), vehicle: saline with Tween-80.
[8] abbreviates: dose: 50.0 mg/kg/injection, schedule: Q01DX009 (ip), vehicle: saline with Tween-80.
[9] abbreviates: dose: 200.0 mg/kg/injection, schedule: Q01DX009 (ip), vehicle: water.
Setting [10] is: dose: 200.0 mg/kg/injection, schedule: Q01DX005 (ip), vehicle: saline with Tween-80.

The structures appear in SMILES notation. The list does not hold the whole screen: it is rich in T/C values a quarter to a half above the control, in often repeated tests (any T/C) and in doses without a T/C. Further doses and runs are listed elsewhere. T/C: endpoint of the treated group in % of that of the vehicle group. Some entries give survivors of the animals treated and no T/C: the source files T/C as zero there, which appears to mark a toxic dose or a test without result, not a measured value. Some survivor counts are full or nearly so, which does not show that the dose was tolerated: the source hardly ever lists a survival T/C far under the control, and the zero likely stands for such cases as well. Survivors were counted at the toxicity check, usually on the fifth day, unless a day is given; later deaths do not show. Schedules are NCI's codes, read here as Q, the interval in days (D) or hours (H), X, the number of doses. For survival time, the PubChem record calls one and a half times the control and up active, and a quarter to a half above the control has no call in these data; cut-offs in other NCI protocols can differ. Some T/C values are followed by the survivors on the day toxicity was checked, most often the fifth; without a count, all were alive then. Some doses were run more than once; the values are given in rising order.

For the compound `NC(=O)c1ncn2c(=O)n(CCCl)nnc12`, the T/C by setting is: (dose: 6.7 mg/kg/injection, schedule: Q01DX005 (ip), vehicle: Klucel (hydroxypropylcellulose) (HPC), evaluated on day 30) 223 % of control; (dose: 6.7 mg/kg/injection, schedule: Q01DX005 (ip), vehicle: Klucel (hydroxypropylcellulose) (HPC), evaluated on day 60) 218, 260, 294 % of control; (dose: 10.0 mg/kg/injection, schedule: Q01DX005 (ip), vehicle: Klucel (hydroxypropylcellulose) (HPC), evaluated on day 30) 294 % of control; (dose: 10.0 mg/kg/injection, schedule: Q01DX005 (ip), vehicle: Klucel (hydroxypropylcellulose) (HPC), evaluated on day 60) 280, 588, 594 % of control; (dose: 15.0 mg/kg/injection, schedule: Q01DX005 (ip), vehicle: Klucel (hydroxypropylcellulose) (HPC), evaluated on day 30) 294 % of control; (dose: 15.0 mg/kg/injection, schedule: Q01DX005 (ip), vehicle: Klucel (hydroxypropylcellulose) (HPC), evaluated on day 60) 220, 582, 588, 594 % of control. The T/C (dose: 22.0 mg/kg/injection, schedule: Q01DX005 (ip), vehicle: Klucel (hydroxypropylcellulose) (HPC), evaluated on day 30) was 294 % of control; the T/C (dose: 22.0 mg/kg/injection, schedule: Q01DX005 (ip), vehicle: Klucel (hydroxypropylcellulose) (HPC), evaluated on day 60) is 230, 582, 588, 594 % of control; the T/C (dose: 33.0 mg/kg/injection, schedule: Q01DX005 (ip), vehicle: Klucel (hydroxypropylcellulose) (HPC), evaluated on day 30) was 294 % of control; the T/C (dose: 33.0 mg/kg/injection, schedule: Q01DX005 (ip), vehicle: Klucel (hydroxypropylcellulose) (HPC), evaluated on day 60) was 121, 208, 441, 582 % of control; the T/C (dose: 50.0 mg/kg/injection, schedule: Q01DX005 (ip), vehicle: saline, evaluated on day 30) is reported as 118, 138, 153 % of control; the T/C (dose: 50.0 mg/kg/injection, schedule: Q01DX005 (ip), vehicle: saline, evaluated on day 60) is 114 % of control [9 of 10 alive]. Moreover, the survivor count runs as follows: (dose: 50.0 mg/kg/injection, schedule: Q01DX005 (ip), vehicle: Klucel (hydroxypropylcellulose) (HPC)) 9 of 10; (dose: 100.0 mg/kg/injection, schedule: Q01DX005 (ip), vehicle: saline) 6 of 6.
Consider `CC1=C(C(=O)Nc2cccc3ccccc23)C(c2cccc([N+](=O)[O-])c2)C(C(=O)Nc2cccc3ccccc23)=C(C)N1`, for which the survivor count is 6 of 6 under setting [1]; 6 of 6 (dose: 120.0 mg/kg/injection, schedule: Q01DX005 (ip), vehicle: Klucel (hydroxypropylcellulose) (HPC)); 6 of 6 under setting [2].
With `N#CSc1ccc2nc(NCO)sc2c1`, the survivor count under setting [3] was 2 of 6.
For the compound `CC[CH](C)[Sn](=[O])[c]1ccccc1` (stereo not given), the survivor count runs as follows: (dose: 0.39 mg/kg/injection, schedule: Q01DX009 (ip), vehicle: saline) 6 of 6; (dose: 0.79 mg/kg/injection, schedule: Q01DX009 (ip), vehicle: saline) 6 of 6; under setting [4], 6 of 6; under setting [5], 6 of 6; under setting [6], 1 of 6; under setting [7], 0 of 6. In addition, the survivor count under setting [8] was 0 of 6; the survivor count (dose: 100.0 mg/kg/injection, schedule: Q01DX009 (ip), vehicle: saline with Tween-80) was 0 of 6; the survivor count (dose: 200.0 mg/kg/injection, schedule: Q01DX009 (ip), vehicle: saline with Tween-80) is listed as 0 of 6. The T/C was 126 % of control under setting [4] and 146 % of control under setting [5].
As for `CC1(C)OC(=O)C(CCc2ccccn2)(CCc2ccccn2)C(=O)O1`, under setting [8], the survivor count is 3 of 6.
Take `NNS(=O)(=O)CCC(N)C(=O)O` (stereo not given): the survivor count under setting [9] is listed as 6 of 6.
In the case of `Nc1cc(Cl)c2[nH]cnc2n1`, where the note is “dose: 100.0 mg/kg/injection, schedule: Q01DX005 (ip), vehicle: distilled water + Tween-80”, the T/C was 135 % of control.
With `CN(C)Cc1cn(C[Si](C)(C)C)c2ccccc12`, the survivor count is, setting by setting: (dose: 120.0 mg/kg/injection, schedule: Q01DX005 (ip), vehicle: saline with Tween-80) 0 of 6; (dose: 240.0 mg/kg/injection, schedule: Q01DX005 (ip), vehicle: saline with Tween-80) 0 of 6.
Regarding `CCCN(CCC)/N=C/c1c2c(O)c3c(O)c(C)c4c(c3c1O)C(=O)C(C)(O/C=C/C(OC)C(C)C(OC(C)=O)C(C)C(O)C(C)C(O)C(C)/C=C/C=C(C)C(=O)N2)O4` (stereo not given), under setting [2], the survivor count is 4 of 6.
With `CCCCCCCCCCCC(=O)NC(=S)Nc1ccccc1C(=O)OC`, the survivor count is on record as 3 of 6 (dose: 100.0 mg/kg/injection, schedule: Q01DX009 (ip), vehicle: saline) and 0 of 6 (dose: 200.0 mg/kg/injection, schedule: Q01DX009 (ip), vehicle: saline).
Take `Cc1cc(Cl)nc2nc(Cl)ccc12`: the survivor count under setting [10] is 3 of 6.
With `O=C(NNC(=O)c1cccc(C(=O)NNC(=O)c2ccc(Cl)c(Cl)c2)n1)c1ccc(Cl)c(Cl)c1`, the T/C reads like this: (dose: 50.0 mg/kg/injection, schedule: Q01DX009 (ip), vehicle: Klucel (hydroxypropylcellulose) (HPC)) 125 % of control; (dose: 100.0 mg/kg/injection, schedule: Q01DX009 (ip), vehicle: Klucel (hydroxypropylcellulose) (HPC)) 127 and 127 % of control [5 of 6 alive]. Under setting [3], the survivor count is given as 3 of 6.
`CC1CCC2(C(=O)O)CCC3(C)C(=CCC4C5(C)CC(O)C(O)C(C)(CO)C5C(O)CC43C)C2C1C` (stereo not given): the survivor count (dose: 200.0 mg/kg/injection, schedule: Q01DX005 (ip), vehicle: Klucel (hydroxypropylcellulose) (HPC)) is 4 of 6.
Turning to `CCN(CC)c1nc(N(CC)CC)c2[nH]cnc2n1`, the survivor count under setting [10] is 0 of 5.
For the compound `COc1cc2c3c(c1)/C(=N\Nc1ccccc1)CCN3CCC2`, the survivor count is, setting by setting: (dose: 6.25 mg/kg/injection, schedule: Q01DX009 (ip), vehicle: DMSO) 2 of 6; (dose: 12.5 mg/kg/injection, schedule: Q01DX009 (ip), vehicle: DMSO) 2 of 6; (dose: 25.0 mg/kg/injection, schedule: Q01DX009 (ip), vehicle: DMSO) 3 of 6; (dose: 50.0 mg/kg/injection, schedule: Q01DX009 (ip), vehicle: DMSO) 1 of 6.
As for `C=C1C(=O)O[C@@H]2/C=C(/CO)C3=CC(=O)[C@@](C)(C[C@@H](OC(=O)/C(C)=C\C)[C@@H]12)O3`, the survivor count runs as follows: (dose: 7.5 mg/kg/injection, schedule: Q01DX005 (ip), vehicle: Klucel (hydroxypropylcellulose) (HPC)) 6 of 6; (dose: 15.0 mg/kg/injection, schedule: Q01DX005 (ip), vehicle: Klucel (hydroxypropylcellulose) (HPC)) 1 of 6; (dose: 30.0 mg/kg/injection, schedule: Q01DX005 (ip), vehicle: Klucel (hydroxypropylcellulose) (HPC)) 0 of 6; under setting [1], 0 of 6.
On to `NC(CCC(=O)O)(C(=O)O)c1ccccc1` (stereo not given), for which the survivor count is 6 of 6 (dose: 0.78 mg/kg/injection, schedule: Q01DX009 (ip), vehicle: saline with Tween-80); 6 of 6 under setting [6]; 6 of 6 under setting [7]; 6 of 6 (dose: 25.0 mg/kg/injection, schedule: Q01DX009 (ip), vehicle: saline with Tween-80); 6 of 6 under setting [8].
Consider `Cc1nnc(NN=O)nc1C`, for which the T/C (dose: 25.0 mg/kg/injection, schedule: Q01DX009 (ip), vehicle: water) is 133 % of control. Also, under setting [9], the survivor count was 1 of 6.
Turning to `COC1C(O)C(C)OC(OC2C(Oc3cccc4c(O)c5c(=O)oc6ccc(C)c7c(=O)oc(c34)c5c67)OC(C)C(O)C2O)C1O` (stereo not given), the T/C was 139 % of control (dose: 1.0 mg/kg/injection, schedule: Q01DX009 (ip), vehicle: saline with Tween-80) and 148 % of control (dose: 2.0 mg/kg/injection, schedule: Q01DX009 (ip), vehicle: saline with Tween-80).
